This assay can be described thus: qHTS Assay for Modulators of Lamin A Splicing. The conditions noted are these: HeLa LMNA splicing GFP/RFP minigene ratio, 48 h. A digest of the protocol:
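S3 HeLa cells stably expressing lamin A-EGFP splicing minigene plus DsRed2, 600 cells/well, 48 h compound exposure at 37C. Laser-scanning cytometry; analysed as GFP (500-530 nm)/RFP (575-640 nm) total intensity ratio; 0.5% DMSO vehicle.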
In general terms: qHTS replaces the single test concentration by a dilution series.

The mark [1] stands for this setting: measured here: RFP viability control channel.
[2] abbreviates: measured here: GFP splicing reporter channel.

Some of the results follow. The main result of the screen is listed elsewhere. These columns were measured beside it and carry no call. The list favours compounds with an active or inconclusive main result. Words in brackets tell the shape of the fitted curve; partial curves, single points and poor fits give uncertain potencies.

For orientation: AC50 means the concentration giving half of the maximal activity seen.

With `COC(=O)c1ccc(NC(=O)CSc2nc3ccc(N4C(=O)C5C6C=CC(C6)C5C4=O)cc3s2)cc1` (configuration not stated), the AC50 under setting [1] is 35.5 µM [rising, single point].
In the case of `CCCCC(CC)COC(=O)c1ccccc1O` (configuration not stated), the AC50 was 10 µM [rising, partial curve, poor fit] under setting [2] and 10 µM [rising, partial curve, poor fit] under setting [1].
With `C[C@H]1CCCC(=O)CCCCCc2cc(O)cc(O)c2C(=O)O1`, the AC50 is 10 µM [falling, partial curve, poor fit] under setting [2] and 28.2 µM [rising, single point] under setting [1].
On to `CCN1CCN(C(=O)Cc2c(C)n(C(=O)c3ccc(Cl)cc3)c3ccc(OC)cc23)CC1`, for which the AC50 under setting [1] was 0.316 µM [rising, partial curve].
Turning to `CN1CCN(C(=O)Cc2nc3ccccc3[nH]2)CC1`, the half-maximal activity concentration (AC50) by setting is: under setting [2], 31.6 µM [rising, single point]; under setting [1], 35.5 µM [rising, single point].
Take `Cc1nc(-c2ccc(-c3ccc(C(=O)N4CCc5cc6c(cc54)C4(CCN(C)CC4)CO6)cc3)c(C)c2)no1`: the AC50 runs as follows: under setting [2], 11.2 µM [falling, partial curve]; under setting [1], 17.8 µM [falling, partial curve].
On to `CC(=NCc1ccc(F)cc1)c1c(O)n(C)c(=O)n(C)c1=O`, for which the AC50 by setting is: under setting [2], 12.6 µM [rising, single point]; under setting [1], 12.6 µM [rising, partial curve].
`Cc1ccc(C(C)C)c(OCC(=O)N2CCN(Cc3nc4cc([N+](=O)[O-])ccc4n3C)CC2)c1`: the AC50 by setting is: under setting [2], 8.91 µM [rising, partial curve]; under setting [1], 17.8 µM [rising, partial curve].
Take `Cc1c(C(=O)N2CCC3(CC2)OCCO3)sc2ncnc(N(C)c3ccccc3)c12`: the AC50 under setting [2] is 8.91 µM [rising, partial curve, poor fit] and the AC50 under setting [1] is 10 µM [rising, partial curve, poor fit].
As to `c1ccc2[nH]c(CCNC3CCCCC3)nc2c1`, the AC50 under setting [1] is 35.5 µM [rising, single point].
On to `COc1ccc(C2=NCC(=O)N(CC(=O)NCc3ccco3)c3sc4c(c32)CCCC4)cc1`, for which, under setting [1], the AC50 is 14.1 µM [rising, single point].
With `CC(C)c1cccc(C(C)C)c1O`, the half-maximal activity concentration (AC50) is 1 µM [falling, full curve] under setting [2] and 1.12 µM [falling, full curve, poor fit] under setting [1].
Regarding `CCC(C)NC(=O)c1c(N)n(CCCOC)c2nc3ccccc3nc12` (configuration not stated), the AC50 under setting [2] is 1.12 µM [rising, partial curve, poor fit] and the AC50 under setting [1] is 0.02 µM [rising, full curve, poor fit].
For `CCOc1ccc(C(NC(=O)c2cc(OC)c(OC)c(OC)c2)c2cc(Cl)c3cccnc3c2O)cc1` (configuration not stated), the AC50 under setting [2] was 5.01 µM [rising, partial curve] and the AC50 under setting [1] was 5.62 µM [rising, partial curve].
Take `Cc1ccc(O)c([C@H](CCN(C(C)C)C(C)C)c2ccccc2)c1`: the half-maximal activity concentration (AC50) was 28.2 µM [falling, single point] under setting [2] and 35.5 µM [falling, single point] under setting [1].
Take `Cc1nn(Cc2ccccc2)c(C)c1C(=O)OCC(=O)Nc1ccccc1SCC#N`: under setting [2], the AC50 is 12.6 µM [rising, single point].
Consider `O=P(OC1CCCCC1)(OC1CCCCC1)C(O)c1c(Cl)cccc1Cl` (configuration not stated), for which the AC50 under setting [2] is 12.6 µM [rising, single point] and the concentration at half-maximal activity (AC50) under setting [1] is 15.8 µM [rising, single point].
Consider `C=COCCn1c(C)c(C(=O)OCC)c2cc(O)ccc21`, for which the AC50 under setting [1] was 35.5 µM [rising, single point].
`Cc1occc1C(=O)Nc1nnc(C(F)(F)F)s1`: the AC50 under setting [1] is 11.2 µM [rising, partial curve].
As for `O=C(O)CC[N+](=O)[O-]`, the half-maximal activity concentration (AC50) runs as follows: under setting [2], 5.62 µM [falling, partial curve, poor fit]; under setting [1], 6.31 µM [falling, partial curve, poor fit].
For `CSc1ncc(CN2CCCC(C(=O)c3cccc(Cl)c3)C2)cn1` (configuration not stated), the AC50 under setting [1] is 10 µM [falling, partial curve, poor fit].
For `COc1ccc(Cn2c(=O)oc3ccc(C)cc32)cc1OC`, the AC50 under setting [1] was 8.91 µM [rising, partial curve].
On to `CC(=O)Nc1ccccc1C(=O)OCc1ccc(F)cc1`, for which the AC50 by setting is: under setting [2], 0.2 µM [falling, full curve]; under setting [1], 7.08 µM [falling, full curve, poor fit].
`COc1ccc(-c2cc(=NCCCCCC(=O)O)c3cc(C)ccc3o2)cc1`: the AC50 under setting [1] was 1.41 µM [falling, partial curve, poor fit].
`CCC[C@@](C)(COC(N)=O)COC(=O)NC(C)C`: the AC50 under setting [2] is 10 µM [falling, single point].
In the case of `Clc1ccccc1-c1cncnc1NCCc1cnc[nH]1`, the AC50 under setting [2] is 10 µM [falling, partial curve] and the AC50 under setting [1] is 7.08 µM [falling, partial curve].
`CC(C)COC(=O)n1c(=O)oc2cc(S(=O)(=O)N3CCCCC3)ccc21`: the AC50 under setting [1] was 35.5 µM [rising, single point].
As to `CN1CC=C(c2c[nH]c3ccccc23)CC1`, the half-maximal activity concentration (AC50) under setting [1] was 12.6 µM [rising, partial curve].
As for `N#CCn1c(CCl)nc2ccccc2c1=O`, the AC50 under setting [2] is 0.158 µM [falling, full curve, poor fit] and the AC50 under setting [1] is 1.41 µM [falling, partial curve].
`O=[N+]([O-])c1cccc(CN2CCN(Cc3ccc(Cl)cc3)CC2)c1`: the AC50 under setting [1] was 12.6 µM [rising, partial curve].
With `CCCCCCCCCC(=O)O[C@H]1CC[C@H]2[C@@H]3CCC4=CC(=O)CC[C@@H]4[C@H]3CC[C@]12C`, the AC50 by setting is: under setting [2], 14.1 µM [rising, partial curve]; under setting [1], 12.6 µM [rising, partial curve, poor fit].
With `O=C(c1ccc(CNS(=O)(=O)c2ccc(Br)cc2)cc1)N1CCC2(CC1)OCCO2`, the AC50 is, setting by setting: under setting [2], 14.1 µM [rising, partial curve]; under setting [1], 15.8 µM [rising, partial curve].
Regarding `CC(CCC(=O)O)C1CCC2C3CC[C@@H]4CCCC[C@@]4(C)C3CC[C@@]12C` (some centres not stated), the half-maximal activity concentration (AC50) reads like this: under setting [2], 17.8 µM [falling, single point]; under setting [1], 20 µM [falling, single point].

The values above are taken from PubChem BioAssay AID1487 (National Center for Advancing Translational Sciences (NCATS), 2009).
